From the supplement of paper PMC10849652
Some of the results follow.

Amino acid sequences for entries named in this document (tags omitted). A change or cut given only in a name is not applied to a line headed by its entry.
UniProt O75340: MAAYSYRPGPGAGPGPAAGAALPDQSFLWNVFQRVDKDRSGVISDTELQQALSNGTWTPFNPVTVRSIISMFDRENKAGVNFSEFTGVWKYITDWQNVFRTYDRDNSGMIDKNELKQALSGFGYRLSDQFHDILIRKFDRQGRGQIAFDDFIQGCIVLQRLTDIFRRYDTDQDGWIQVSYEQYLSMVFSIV
UniProt Q9Y5K3: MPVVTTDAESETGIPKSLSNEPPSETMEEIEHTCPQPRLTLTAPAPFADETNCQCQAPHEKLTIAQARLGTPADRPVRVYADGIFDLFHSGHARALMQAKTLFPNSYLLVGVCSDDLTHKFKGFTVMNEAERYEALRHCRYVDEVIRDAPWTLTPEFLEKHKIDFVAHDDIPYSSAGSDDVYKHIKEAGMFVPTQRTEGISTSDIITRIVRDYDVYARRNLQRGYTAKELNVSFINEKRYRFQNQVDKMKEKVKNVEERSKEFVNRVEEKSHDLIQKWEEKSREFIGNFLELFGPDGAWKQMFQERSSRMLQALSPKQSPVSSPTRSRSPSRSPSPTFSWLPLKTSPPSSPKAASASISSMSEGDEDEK
UniProt O95613: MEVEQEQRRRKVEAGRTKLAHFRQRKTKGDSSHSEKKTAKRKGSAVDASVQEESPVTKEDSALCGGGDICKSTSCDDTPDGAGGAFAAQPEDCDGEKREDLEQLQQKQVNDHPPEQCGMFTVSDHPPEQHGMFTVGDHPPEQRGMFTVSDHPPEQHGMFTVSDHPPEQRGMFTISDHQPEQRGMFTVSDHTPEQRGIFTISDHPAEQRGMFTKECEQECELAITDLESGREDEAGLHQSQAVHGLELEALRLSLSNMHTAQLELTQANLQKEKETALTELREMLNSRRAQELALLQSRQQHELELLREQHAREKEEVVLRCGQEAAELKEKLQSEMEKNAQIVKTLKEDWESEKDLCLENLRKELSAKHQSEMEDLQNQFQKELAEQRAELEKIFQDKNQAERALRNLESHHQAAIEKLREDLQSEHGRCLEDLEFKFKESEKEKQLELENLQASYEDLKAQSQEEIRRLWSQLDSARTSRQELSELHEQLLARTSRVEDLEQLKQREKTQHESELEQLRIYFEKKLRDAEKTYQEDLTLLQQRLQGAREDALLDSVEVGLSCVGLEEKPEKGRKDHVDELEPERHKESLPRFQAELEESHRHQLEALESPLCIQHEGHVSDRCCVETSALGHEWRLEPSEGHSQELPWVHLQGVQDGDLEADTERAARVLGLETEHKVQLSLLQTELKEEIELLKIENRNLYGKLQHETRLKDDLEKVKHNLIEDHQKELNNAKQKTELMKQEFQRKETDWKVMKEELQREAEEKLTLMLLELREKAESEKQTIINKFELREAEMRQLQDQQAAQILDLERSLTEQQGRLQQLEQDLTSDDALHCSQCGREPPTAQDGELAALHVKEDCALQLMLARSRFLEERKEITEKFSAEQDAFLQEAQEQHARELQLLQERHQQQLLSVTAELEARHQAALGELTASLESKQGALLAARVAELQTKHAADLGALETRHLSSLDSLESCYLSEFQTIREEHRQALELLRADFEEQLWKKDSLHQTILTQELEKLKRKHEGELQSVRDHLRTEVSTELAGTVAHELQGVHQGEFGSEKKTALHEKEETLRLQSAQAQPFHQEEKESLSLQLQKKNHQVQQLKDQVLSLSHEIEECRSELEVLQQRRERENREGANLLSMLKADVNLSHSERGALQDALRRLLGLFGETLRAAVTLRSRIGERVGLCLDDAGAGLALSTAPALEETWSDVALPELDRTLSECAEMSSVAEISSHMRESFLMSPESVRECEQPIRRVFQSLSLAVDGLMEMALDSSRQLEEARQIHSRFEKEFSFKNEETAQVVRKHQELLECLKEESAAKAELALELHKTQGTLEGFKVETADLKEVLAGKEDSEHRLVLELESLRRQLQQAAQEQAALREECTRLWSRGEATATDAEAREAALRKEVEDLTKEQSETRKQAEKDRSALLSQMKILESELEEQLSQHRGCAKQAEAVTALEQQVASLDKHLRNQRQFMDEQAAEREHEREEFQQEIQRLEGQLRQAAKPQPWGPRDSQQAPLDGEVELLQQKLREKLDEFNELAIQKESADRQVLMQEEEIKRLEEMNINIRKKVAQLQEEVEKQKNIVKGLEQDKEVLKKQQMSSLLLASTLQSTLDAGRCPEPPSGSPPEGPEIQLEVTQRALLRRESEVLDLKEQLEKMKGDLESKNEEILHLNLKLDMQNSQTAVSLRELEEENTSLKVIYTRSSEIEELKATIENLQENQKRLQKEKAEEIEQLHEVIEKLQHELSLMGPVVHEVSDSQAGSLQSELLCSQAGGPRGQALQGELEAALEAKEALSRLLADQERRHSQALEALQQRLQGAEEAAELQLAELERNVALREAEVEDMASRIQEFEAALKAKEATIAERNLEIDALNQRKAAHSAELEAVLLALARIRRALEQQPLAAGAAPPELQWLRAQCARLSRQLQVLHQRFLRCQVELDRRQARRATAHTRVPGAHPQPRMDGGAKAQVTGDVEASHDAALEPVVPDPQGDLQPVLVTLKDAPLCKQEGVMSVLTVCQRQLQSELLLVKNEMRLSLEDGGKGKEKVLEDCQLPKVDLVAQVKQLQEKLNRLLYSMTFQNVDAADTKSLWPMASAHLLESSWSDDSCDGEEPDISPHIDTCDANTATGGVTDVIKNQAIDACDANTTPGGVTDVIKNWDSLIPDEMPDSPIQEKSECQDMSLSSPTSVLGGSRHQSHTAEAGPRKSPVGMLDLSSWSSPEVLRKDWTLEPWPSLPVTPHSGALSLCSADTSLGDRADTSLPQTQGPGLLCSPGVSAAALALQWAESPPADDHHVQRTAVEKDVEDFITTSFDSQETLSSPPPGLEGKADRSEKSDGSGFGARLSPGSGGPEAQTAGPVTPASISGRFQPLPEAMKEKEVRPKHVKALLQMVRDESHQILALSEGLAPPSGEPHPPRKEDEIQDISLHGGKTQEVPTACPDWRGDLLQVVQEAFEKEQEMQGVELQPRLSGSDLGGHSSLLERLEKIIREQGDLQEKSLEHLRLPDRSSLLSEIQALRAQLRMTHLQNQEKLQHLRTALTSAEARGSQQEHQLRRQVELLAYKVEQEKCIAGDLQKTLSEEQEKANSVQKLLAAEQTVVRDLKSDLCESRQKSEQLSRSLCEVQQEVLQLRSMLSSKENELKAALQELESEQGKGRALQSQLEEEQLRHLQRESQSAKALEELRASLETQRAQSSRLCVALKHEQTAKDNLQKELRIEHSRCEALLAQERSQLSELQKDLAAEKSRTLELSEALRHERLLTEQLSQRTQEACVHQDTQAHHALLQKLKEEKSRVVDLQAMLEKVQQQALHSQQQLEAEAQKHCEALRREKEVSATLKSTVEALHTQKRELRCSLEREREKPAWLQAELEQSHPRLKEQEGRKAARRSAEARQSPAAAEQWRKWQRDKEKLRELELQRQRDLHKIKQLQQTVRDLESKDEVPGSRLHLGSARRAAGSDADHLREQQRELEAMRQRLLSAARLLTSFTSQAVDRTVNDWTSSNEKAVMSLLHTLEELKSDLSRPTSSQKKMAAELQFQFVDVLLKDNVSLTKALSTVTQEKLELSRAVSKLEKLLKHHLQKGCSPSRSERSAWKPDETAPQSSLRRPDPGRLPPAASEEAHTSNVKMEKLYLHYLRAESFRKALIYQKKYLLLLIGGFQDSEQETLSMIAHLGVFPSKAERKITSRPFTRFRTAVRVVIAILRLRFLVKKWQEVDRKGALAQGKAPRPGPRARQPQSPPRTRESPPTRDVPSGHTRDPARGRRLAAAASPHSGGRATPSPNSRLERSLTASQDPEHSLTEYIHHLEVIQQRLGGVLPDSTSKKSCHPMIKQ
UniProt O43924: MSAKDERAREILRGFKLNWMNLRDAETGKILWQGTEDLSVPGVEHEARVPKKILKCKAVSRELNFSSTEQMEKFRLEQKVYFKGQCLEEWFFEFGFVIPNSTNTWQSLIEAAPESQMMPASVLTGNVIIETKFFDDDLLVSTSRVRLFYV
UniProt P40425: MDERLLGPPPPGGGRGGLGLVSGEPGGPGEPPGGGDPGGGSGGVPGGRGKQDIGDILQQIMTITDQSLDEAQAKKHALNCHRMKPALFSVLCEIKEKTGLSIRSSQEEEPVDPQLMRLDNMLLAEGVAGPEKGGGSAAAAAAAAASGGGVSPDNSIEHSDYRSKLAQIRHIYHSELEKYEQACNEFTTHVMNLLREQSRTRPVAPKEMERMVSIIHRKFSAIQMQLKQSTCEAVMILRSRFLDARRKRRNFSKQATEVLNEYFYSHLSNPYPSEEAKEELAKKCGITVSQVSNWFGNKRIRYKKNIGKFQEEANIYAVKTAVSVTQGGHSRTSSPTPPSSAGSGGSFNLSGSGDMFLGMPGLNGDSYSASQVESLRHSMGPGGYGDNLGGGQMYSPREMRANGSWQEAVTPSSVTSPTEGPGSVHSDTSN
UniProt Q9P0J1: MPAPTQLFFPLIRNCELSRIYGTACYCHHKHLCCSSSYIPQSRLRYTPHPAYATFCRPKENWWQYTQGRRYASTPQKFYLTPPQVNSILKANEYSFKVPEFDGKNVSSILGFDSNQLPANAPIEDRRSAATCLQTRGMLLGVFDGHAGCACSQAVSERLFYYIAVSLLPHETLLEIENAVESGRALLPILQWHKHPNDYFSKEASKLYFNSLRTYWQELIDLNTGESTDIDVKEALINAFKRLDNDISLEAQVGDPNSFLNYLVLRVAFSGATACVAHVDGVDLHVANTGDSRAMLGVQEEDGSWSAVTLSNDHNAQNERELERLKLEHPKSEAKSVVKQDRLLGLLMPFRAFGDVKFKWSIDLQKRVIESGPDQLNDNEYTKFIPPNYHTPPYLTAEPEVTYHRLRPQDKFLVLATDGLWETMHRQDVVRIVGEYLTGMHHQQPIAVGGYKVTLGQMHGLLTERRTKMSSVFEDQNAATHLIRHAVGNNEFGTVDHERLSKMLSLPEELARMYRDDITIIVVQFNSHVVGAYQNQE
UniProt O60683: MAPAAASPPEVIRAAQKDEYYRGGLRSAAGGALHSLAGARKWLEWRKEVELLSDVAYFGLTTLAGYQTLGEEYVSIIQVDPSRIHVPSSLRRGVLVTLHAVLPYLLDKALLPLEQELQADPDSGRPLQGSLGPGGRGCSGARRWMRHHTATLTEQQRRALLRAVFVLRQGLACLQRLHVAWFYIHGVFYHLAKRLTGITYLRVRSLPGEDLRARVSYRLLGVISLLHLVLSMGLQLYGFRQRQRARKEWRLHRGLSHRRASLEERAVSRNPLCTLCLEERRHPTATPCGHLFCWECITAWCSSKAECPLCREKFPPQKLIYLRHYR
UniProt P27815: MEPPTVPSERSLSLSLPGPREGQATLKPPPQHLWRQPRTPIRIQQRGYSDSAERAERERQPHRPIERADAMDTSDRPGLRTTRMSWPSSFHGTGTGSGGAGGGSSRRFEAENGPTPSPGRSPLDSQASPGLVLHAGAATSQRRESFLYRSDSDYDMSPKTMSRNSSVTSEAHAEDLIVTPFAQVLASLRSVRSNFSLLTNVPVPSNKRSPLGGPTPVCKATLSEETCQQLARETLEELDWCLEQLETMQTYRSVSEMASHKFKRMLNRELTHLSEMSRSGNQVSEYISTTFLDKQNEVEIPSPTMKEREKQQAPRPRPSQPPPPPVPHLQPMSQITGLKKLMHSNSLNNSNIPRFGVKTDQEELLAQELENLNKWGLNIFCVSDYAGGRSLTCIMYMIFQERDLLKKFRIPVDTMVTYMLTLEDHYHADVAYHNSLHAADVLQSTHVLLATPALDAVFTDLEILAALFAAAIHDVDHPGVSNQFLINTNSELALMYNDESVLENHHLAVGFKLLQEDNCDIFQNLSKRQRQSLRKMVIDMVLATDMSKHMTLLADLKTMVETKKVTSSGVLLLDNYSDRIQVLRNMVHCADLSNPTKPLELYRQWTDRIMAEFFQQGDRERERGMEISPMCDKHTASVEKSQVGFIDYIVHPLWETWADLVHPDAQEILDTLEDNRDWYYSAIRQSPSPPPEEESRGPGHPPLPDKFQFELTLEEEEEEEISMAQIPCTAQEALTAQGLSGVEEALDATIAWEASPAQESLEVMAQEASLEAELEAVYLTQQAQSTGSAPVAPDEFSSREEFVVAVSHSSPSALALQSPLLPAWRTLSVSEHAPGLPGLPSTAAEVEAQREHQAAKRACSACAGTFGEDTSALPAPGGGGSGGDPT
UniProt O00623: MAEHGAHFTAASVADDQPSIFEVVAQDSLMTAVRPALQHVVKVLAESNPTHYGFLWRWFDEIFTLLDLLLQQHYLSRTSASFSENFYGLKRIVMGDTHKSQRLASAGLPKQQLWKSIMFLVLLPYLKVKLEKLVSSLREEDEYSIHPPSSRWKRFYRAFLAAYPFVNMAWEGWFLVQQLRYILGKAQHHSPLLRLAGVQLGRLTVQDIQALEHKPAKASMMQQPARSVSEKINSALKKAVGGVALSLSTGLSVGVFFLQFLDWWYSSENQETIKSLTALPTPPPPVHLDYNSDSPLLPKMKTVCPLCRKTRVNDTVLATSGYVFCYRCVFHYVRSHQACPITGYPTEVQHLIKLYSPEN

What was measured:
Assay in all cases: log2 fold change, soluble protein after heating vs DMSO (PISA); higher = thermal stabilisation; K562 cells, 10 uM, 30 min; active = over 0.2 and 3.5 SD of the protein, either way, in both replicates (recomputed)
[1] = compound: CC[C@@H]1C(=O)N(C)c2cnc(Nc3ccc(C(=O)NC4CCN(C)CC4)cc3OC)nc2N1C1CCCC1
Summary of the method: (§1)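 Soluble protein was quantified by TMTpro 16plex LC-MS/MS after channel sums were equalised. It was obtained as the supernatant after 21,000xg for 90 min from pooled aliquots of K562 cells (2×10^6 cells/mL, 10 μM compound, 30 min) heated for 3 min across 48°C-58°C and extracted in PBS with 0.5% NP-40 at 4°C. Thermal stability values are relative to control samples and come from duplicates. They are given as log2 fold changes.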

volasertib = compound: CC[C@@H]1C(=O)N(C)c2cnc(Nc3ccc(C(=O)N[C@H]4CC[C@H](N5CCN(CC6CC6)CC5)CC4)cc3OC)nc2N1C(C)C [volasertib]
Summary of the method: as §1

[2] = compound: CC[C@H](C)N1C=C(C2=C(C=C(C=C21)C3=CN=C(C=C3)N4CCNCC4)C(=O)NCC5=C(C=C(NC5=O)C)C)C
Summary of the method: as §1

epoxomicin = compound: CC[C@H](C)[C@@H](C(=O)N[C@@H]([C@@H](C)O)C(=O)N[C@@H](CC(C)C)C(=O)[C@]1(CO1)C)NC(=O)[C@H]([C@@H](C)CC)N(C)C(=O)C [epoxomicin]
Summary of the method: as §1

[3] = compound: CCn1cc(-c2ccnc3[nH]c(-c4cccc(CN(C)C)c4)cc23)c(-c2ccc(NC(=O)N(C)C)cc2)n1
Summary of the method: as §1

[4] = compound: CN(C)CC(=O)Nc1ccc2[nH]c(=O)c3ccccc3c2c1
Summary of the method: as §1

[5] = compound: CN1C2=C(C3=C1C(=O)N(N=C3)CC4=CC(=CC=C4)N)SC(=C2)S(=O)C
Summary of the method: as §1

[6] = compound: CN1CCC(CNc2ccc3ncc(-c4cccc(OC(F)(F)F)c4)n3n2)CC1
Summary of the method: as §1

rosiglitazone = compound: CN(CCOC1=CC=C(C=C1)C[C@H]2C(=O)NC(=O)S2)C3=CC=CC=N3 (racemic) [rosiglitazone]
Summary of the method: as §1

[7] = compound: CCn1c(C(=O)N(C2CC2)C2CC2)cc2c3c(ncn3C)c(Nc3cc(C)n(C)n3)nc21
Summary of the method: as §1

Measured: log2 fold change

PDCD6 (UniProt O75340)
active: volasertib -0.283
inactive: [1] -0.157 | [2] -0.006 | epoxomicin 0.031 | [3] -0.01 | [4] 0.007 | [5] -0.041 | [6] -0.057

PDE2A (UniProt O00408)
inactive: [1] -0.031 | volasertib -0.107 | [2] 0.016 | epoxomicin -0.087 | [3] -0.082 | [4] 0.027 | [5] 0 | [6] -0.091

PARG (UniProt Q86W56)
inactive: [1] 0.036 | volasertib -0.025 | [2] 0.059 | epoxomicin 0.004 | [3] -0.016 | [4] 0.09 | [5] 0.005 | [6] -0.126

PARN (UniProt O95453)
inactive: [1] -0.146 | [2] 0.059 | epoxomicin 0.051 | [3] -0.076 | [4] 0.017 | [5] -0.057 | [6] -0.196
active: volasertib -0.401

PDE6C (UniProt P51160)
inactive: [1] 0.029 | volasertib 0.012 | [2] -0.234 | [4] -0.014 | rosiglitazone 0.109 | [5] -0.011

PARP1 (UniProt P09874)
inactive: [1] -0.233 | [2] 0.162 | epoxomicin 0.1 | [3] 0.302 | [5] 0.027 | [6] -0.146
active: volasertib -0.57

PCYT1B (UniProt Q9Y5K3)
active: volasertib -0.315
inactive: [1] -0.105 | [2] 0.08 | epoxomicin 0.001 | [3] 0 | [4] 0.012 | [5] -0.007 | [6] 0.035

PDSS2 (UniProt Q86YH6)
inactive: [1] 0.021 | volasertib 0.016 | [2] 0.12 | epoxomicin 0.024 | [3] -0.069 | [4] 0.05 | [5] 0.02 | [6] 0.018

PCNT (UniProt O95613)
inactive: [1] 0.08 | volasertib 0.131 | [2] -0.147 | epoxomicin -0.177 | [3] -0.002 | [4] -0.101 | [5] 0.158
active: [6] -0.567

PECAM1 (UniProt P16284)
inactive: [1] 0.116 | volasertib 0.061 | [2] -0.019 | epoxomicin -0.027 | [3] -0.106 | [4] 0.027 | [5] -0.067 | [6] 0.168

PAN3 (UniProt Q58A45)
inactive: [3] -0.054 | [6] -0.23

PDE6D (UniProt O43924)
inactive: [2] -0.179 | epoxomicin 0.105 | [3] -0.29 | [4] 0.05 | [5] -0.096 | [6] 0.061

PBX2 (UniProt P40425)
inactive: volasertib -0.251 | [2] 0.025 | epoxomicin 0.123 | [3] -0.009 | [4] 0.023 | [5] -0.056 | [6] 0.024

PDE4DIP (UniProt E9PS60)
inactive: [1] 0.047 | [4] 0.095

PDXP (UniProt B1AHD3)
inactive: epoxomicin -0.003 | [4] -0.023

PARP4 (UniProt Q9UKK3)
inactive: [5] -0.044

PEMT isoform 2 (UniProt Q9UBM1)
inactive: [7] 0.001

PDP1 isoform 2 (UniProt Q9P0J1)
inactive: volasertib -0.191 | rosiglitazone 0.071

PEX10 isoform 2 (UniProt O60683)
inactive: volasertib -0.309 | [3] -0.146 | [5] -0.018 | [6] -0.143

PCIF1 (UniProt Q9H4Z3)
inactive: [2] 0.119 | epoxomicin 0.15 | [7] -0.045 | [3] -0.07 | [4] 0.017 | rosiglitazone 0.087 | [5] 0.062 | [6] -0.004

PCGF6 (UniProt Q9BYE7)
inactive: [5] -0.013

PCMTD2 (UniProt Q9NV79)
inactive: [2] 0.276

PDE3B (UniProt Q13370)
inactive: epoxomicin -0.006

PAFAH1B1 (UniProt I3L3N5)
inactive: volasertib 0.012 | [4] -0.076 | rosiglitazone 0.112 | [5] 0

PDE4A (UniProt P27815)
inactive: volasertib -0.331 | epoxomicin -0.124 | [4] 0.082

PAN2 (UniProt Q504Q3)
inactive: [1] 0.101 | [2] 0.167 | [4] 0.006 | [5] 0.143

PACC1 (UniProt Q9H813)
inactive: volasertib -0.063 | [2] -0.115 | epoxomicin -0.067 | [4] -0.063 | rosiglitazone 0.019 | [5] -0.117

PCSK7 (UniProt Q16549)
inactive: volasertib 0.006 | [7] 0.066

PCMTD1 (UniProt Q96MG8)
inactive: [2] 0.058 | epoxomicin -0.044 | rosiglitazone 0.181 | [5] 0.006

PCYT2 (UniProt I3L1F9)
inactive: volasertib -0.1

PDCD2 (UniProt Q16342)
inactive: [1] 0.054 | epoxomicin 0.068 | rosiglitazone 0.033 | [5] 0.401

Fetched one by one from the list above, three records:
PAN2 (UniProt Q504Q3)
inactive: [1] 0.101 | [2] 0.167 | [4] 0.006 | [5] 0.143

PCSK7 (UniProt Q16549)
inactive: volasertib 0.006 | [7] 0.066

PDCD2 (UniProt Q16342)
inactive: [1] 0.054 | epoxomicin 0.068 | rosiglitazone 0.033 | [5] 0.401

Remaining list, next part:

PEX12 (UniProt O00623)
inactive: volasertib 0.14 | [2] 0.034 | epoxomicin 0.031 | [7] -0.012 | [3] -0.066 | [4] 0.111 | rosiglitazone 0.036 | [5] -0.105 | [6] 0.272

PAPOLA (UniProt G3XAH6)
inactive: [2] 0.134

PCNX3 (UniProt Q9H6A9)
inactive: volasertib -0.338 | [7] -0.017

PAF1 (UniProt Q8N7H5)
inactive: epoxomicin -0.103 | [3] 0.101 | [5] 0.109 | [6] 0.138

PAFAH2 (UniProt Q99487)
inactive: volasertib -0.058 | [4] 0.005 | [5] -0.059

PCBP2 (UniProt F8VZX2)
inactive: [2] 0.075 | [5] 0.098

PCGF5 (UniProt Q86SE9)
inactive: [1] -0.168 | epoxomicin 0.264 | rosiglitazone 0.128 | [5] 0.335

PCM1 isoform 2 (UniProt Q15154)
inactive: [3] -0.078 | [5] 0.432 | [6] 0.174

PABPN1 (UniProt Q86U42)
inactive: [3] 0.117 | rosiglitazone -0.078 | [5] 0.078 | [6] 0.157

PACSIN3 (UniProt Q9UKS6)
inactive: epoxomicin 0.048 | [7] 0.169

PALM (UniProt O75781)
inactive: [7] 0.08 | [4] -0.014

PAXBP1 (UniProt Q9Y5B6)
inactive: [1] -0.445 | [7] -0.048 | [3] 0.153 | rosiglitazone -0.089 | [6] 0.148
